US20220233743A1, “WOUND CLOSURE ENHANCEMENT METHODS AND MATERIALS VIA MANIPULATION OR AUGMENTATION OF LIPIN-1” (Board of Supervisors of Louisiana State University and …, priority 2019, published 2022)
For at least one compound, name, drawing or mass did not settle the structure.

System: BMDMs
Experiment: Palmitate use, Seahorse OCR
Assay type: cell-based, mouse
Details: IL-4 1.5 h, nutrient-restricted media, 2-deoxy-d-glucose, 100 μM palmitate

## CCCCCCCCCCCCCCCC(=O)O [palmitate]
WT BMDMs
  OCR on addition of palmitate: significantly increased OCR
lipin-1 KO BMDMs
  OCR on addition of palmitate: failed to increase OCR
